# Results taken from the supplement of paper PMC6411743.
# Sequences of proteins named here, by UniProt entry; tags and fusion partners are left off. A change or cut given only in a name is not applied to a line headed by its entry.
# UniProt Q5U5X0: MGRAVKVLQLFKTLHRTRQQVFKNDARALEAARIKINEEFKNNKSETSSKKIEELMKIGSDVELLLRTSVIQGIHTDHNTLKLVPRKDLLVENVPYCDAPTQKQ
# UniProt Q15751: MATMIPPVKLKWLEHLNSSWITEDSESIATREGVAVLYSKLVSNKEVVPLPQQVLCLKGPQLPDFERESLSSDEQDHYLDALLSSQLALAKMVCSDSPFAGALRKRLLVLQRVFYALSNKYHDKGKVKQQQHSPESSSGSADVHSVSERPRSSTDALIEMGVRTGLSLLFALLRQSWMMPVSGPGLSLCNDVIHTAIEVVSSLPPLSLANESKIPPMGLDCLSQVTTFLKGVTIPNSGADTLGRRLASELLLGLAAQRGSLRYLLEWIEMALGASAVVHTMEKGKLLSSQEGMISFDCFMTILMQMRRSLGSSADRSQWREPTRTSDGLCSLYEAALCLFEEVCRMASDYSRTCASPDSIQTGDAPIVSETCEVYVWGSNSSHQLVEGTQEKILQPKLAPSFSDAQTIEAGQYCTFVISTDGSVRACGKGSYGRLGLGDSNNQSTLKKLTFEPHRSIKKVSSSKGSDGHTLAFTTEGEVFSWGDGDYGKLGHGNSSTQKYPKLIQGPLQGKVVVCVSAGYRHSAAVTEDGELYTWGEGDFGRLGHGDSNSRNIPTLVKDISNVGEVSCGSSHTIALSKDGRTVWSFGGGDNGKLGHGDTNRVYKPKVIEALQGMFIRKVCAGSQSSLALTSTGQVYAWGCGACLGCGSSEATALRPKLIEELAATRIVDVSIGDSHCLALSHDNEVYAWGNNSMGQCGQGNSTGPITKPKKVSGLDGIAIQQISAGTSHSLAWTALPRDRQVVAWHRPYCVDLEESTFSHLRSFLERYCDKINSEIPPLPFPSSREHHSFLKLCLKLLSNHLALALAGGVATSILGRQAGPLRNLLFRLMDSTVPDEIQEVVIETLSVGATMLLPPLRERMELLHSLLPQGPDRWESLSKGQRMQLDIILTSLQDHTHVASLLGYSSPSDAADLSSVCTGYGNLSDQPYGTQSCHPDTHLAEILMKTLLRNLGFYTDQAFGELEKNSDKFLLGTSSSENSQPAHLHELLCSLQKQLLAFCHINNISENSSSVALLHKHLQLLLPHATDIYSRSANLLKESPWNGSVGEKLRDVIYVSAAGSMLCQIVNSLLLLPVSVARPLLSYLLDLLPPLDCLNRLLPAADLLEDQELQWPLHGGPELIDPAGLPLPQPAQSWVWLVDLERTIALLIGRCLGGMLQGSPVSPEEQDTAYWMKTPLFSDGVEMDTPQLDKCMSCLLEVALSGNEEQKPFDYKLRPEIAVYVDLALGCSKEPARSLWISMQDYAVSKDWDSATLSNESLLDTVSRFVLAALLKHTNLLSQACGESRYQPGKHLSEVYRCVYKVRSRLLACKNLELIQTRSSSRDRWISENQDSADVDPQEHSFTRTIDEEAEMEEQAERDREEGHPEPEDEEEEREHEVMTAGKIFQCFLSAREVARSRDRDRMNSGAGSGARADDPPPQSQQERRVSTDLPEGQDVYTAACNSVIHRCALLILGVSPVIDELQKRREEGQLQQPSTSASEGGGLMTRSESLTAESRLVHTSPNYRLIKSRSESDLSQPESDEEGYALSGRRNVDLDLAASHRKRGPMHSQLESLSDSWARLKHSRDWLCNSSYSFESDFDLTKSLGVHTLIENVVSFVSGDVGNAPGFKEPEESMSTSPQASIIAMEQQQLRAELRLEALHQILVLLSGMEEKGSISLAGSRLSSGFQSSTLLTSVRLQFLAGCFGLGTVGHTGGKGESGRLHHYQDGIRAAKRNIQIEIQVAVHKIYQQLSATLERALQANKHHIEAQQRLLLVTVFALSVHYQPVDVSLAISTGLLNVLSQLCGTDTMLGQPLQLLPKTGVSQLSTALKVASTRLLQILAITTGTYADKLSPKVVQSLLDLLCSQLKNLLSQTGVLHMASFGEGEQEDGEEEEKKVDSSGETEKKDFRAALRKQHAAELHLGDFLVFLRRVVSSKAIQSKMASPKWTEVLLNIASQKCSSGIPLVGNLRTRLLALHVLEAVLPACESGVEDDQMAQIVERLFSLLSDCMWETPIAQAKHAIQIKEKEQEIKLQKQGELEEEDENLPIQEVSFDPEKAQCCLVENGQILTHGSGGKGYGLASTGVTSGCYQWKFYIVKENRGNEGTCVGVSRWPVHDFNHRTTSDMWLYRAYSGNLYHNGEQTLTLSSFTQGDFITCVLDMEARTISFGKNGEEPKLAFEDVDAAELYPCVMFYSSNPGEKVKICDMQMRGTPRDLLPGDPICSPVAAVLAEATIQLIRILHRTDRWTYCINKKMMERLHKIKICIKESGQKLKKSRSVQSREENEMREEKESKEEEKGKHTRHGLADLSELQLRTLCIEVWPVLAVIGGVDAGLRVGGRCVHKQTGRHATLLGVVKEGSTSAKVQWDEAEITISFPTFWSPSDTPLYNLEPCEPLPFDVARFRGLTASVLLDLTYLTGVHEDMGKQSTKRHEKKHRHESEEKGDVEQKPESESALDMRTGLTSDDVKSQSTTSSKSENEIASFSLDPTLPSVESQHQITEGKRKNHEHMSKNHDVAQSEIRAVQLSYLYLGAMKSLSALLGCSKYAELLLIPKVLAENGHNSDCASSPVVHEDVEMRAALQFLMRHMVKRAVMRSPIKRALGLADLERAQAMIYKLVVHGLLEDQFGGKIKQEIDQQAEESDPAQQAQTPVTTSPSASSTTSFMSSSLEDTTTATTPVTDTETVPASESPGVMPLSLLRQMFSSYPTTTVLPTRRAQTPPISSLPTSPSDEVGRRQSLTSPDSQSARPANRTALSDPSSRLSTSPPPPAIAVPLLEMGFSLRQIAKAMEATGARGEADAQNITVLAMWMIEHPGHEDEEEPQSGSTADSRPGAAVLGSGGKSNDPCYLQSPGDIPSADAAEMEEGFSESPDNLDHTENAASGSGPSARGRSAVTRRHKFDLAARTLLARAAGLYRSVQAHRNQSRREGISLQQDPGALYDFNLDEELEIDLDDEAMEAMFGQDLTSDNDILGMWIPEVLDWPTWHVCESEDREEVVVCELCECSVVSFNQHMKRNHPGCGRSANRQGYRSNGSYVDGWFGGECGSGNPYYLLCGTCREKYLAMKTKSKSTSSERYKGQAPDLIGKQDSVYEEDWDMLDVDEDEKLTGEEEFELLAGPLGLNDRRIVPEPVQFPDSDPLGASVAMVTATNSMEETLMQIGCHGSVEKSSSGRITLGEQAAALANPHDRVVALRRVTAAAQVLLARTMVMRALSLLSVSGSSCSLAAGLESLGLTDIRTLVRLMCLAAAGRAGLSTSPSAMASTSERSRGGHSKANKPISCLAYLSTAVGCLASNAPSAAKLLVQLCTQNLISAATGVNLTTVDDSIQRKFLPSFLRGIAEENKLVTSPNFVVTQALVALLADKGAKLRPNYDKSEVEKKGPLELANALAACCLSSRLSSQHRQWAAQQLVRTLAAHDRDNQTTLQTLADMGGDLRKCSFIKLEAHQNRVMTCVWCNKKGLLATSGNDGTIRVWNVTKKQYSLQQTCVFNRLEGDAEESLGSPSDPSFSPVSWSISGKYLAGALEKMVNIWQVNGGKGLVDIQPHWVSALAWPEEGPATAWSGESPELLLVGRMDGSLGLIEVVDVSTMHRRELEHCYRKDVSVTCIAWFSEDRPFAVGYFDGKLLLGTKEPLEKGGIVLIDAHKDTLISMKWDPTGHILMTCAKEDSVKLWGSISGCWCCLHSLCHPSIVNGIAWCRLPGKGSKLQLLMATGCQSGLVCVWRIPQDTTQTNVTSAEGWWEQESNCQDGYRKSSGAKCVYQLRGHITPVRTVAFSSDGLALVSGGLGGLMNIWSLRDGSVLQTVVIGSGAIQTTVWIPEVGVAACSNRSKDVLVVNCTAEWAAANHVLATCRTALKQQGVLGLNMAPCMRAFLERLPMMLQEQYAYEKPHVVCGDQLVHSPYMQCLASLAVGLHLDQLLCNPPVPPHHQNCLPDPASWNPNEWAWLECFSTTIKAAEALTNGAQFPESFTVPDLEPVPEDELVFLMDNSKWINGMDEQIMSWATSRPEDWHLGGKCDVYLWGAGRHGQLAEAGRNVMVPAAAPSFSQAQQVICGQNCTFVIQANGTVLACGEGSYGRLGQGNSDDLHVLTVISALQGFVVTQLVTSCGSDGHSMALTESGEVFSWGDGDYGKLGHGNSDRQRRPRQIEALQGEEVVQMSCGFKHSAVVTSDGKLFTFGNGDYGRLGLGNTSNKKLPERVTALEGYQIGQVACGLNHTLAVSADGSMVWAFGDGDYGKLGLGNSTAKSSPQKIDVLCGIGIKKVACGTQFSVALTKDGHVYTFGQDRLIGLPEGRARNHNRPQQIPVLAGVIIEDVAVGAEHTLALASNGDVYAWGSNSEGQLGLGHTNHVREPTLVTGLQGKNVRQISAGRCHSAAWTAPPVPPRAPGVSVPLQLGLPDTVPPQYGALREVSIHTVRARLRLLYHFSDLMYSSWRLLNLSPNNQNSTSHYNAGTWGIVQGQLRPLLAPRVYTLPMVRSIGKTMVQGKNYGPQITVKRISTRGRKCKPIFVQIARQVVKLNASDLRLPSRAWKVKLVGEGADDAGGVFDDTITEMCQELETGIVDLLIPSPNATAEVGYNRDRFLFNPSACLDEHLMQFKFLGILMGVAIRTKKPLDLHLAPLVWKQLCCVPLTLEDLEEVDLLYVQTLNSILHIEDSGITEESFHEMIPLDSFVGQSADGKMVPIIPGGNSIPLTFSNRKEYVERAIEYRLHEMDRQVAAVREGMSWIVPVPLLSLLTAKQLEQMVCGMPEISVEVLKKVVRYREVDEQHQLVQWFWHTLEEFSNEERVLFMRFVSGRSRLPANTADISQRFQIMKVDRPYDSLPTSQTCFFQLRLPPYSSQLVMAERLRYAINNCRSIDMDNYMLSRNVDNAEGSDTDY
# UniProt Q5QJE6: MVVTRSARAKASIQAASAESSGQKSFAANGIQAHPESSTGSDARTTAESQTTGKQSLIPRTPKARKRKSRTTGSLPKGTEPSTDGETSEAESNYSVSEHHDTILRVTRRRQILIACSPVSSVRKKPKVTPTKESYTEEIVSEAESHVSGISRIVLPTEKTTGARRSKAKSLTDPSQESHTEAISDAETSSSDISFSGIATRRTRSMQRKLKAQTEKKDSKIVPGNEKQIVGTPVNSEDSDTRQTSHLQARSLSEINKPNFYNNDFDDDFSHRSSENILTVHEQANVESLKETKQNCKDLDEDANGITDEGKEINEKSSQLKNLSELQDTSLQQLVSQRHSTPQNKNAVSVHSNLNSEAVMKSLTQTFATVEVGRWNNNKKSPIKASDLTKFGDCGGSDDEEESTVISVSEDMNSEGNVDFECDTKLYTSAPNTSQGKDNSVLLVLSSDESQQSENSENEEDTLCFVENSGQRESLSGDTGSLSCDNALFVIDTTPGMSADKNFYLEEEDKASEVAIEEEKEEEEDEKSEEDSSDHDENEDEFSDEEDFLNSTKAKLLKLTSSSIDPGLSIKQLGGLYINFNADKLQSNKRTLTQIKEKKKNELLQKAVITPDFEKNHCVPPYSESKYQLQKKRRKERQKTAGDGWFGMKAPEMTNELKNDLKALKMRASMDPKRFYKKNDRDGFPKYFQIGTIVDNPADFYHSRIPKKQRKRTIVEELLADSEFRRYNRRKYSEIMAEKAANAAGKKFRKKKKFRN
# UniProt Q3B726, whole entry: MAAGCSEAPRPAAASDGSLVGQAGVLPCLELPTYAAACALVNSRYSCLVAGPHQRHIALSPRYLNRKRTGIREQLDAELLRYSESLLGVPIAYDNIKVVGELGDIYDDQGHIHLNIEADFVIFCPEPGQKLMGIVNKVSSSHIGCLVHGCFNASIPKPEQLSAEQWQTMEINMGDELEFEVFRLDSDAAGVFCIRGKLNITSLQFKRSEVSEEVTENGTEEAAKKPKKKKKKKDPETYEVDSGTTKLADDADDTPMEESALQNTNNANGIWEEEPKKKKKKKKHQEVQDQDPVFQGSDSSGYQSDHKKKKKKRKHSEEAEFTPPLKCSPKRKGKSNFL
# UniProt Q15836, whole entry: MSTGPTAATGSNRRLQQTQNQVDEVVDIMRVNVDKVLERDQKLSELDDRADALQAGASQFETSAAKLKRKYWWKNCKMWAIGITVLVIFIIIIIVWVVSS
# UniProt Q49B96: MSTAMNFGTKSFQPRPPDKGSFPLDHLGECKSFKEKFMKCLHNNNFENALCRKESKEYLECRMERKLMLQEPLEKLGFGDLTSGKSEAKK
# UniProt Q15527: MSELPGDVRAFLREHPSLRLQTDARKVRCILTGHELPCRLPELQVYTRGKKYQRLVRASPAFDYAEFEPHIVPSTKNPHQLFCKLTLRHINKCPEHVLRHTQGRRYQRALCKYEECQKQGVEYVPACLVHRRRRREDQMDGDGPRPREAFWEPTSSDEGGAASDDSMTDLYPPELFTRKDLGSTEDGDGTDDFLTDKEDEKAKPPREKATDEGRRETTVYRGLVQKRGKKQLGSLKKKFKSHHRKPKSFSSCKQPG
# ± gives the standard deviation of the averaged measurements. This is a selection; strong and weak results do not stand in their true shares.
# Compound: Nc1ncnc2c1ncn2[C@@H]1O[C@H](COP(=O)(O)OP(=O)(O)NP(=O)(O)O)[C@@H](O)[C@H]1O [adenylyl imidodiphosphate]
# Assay: NP40-soluble protein abundance relative to vehicle (solubility fold change) (ratio); higher = more soluble protein in presence of AMP-PNP
# How it was run: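 Each value is a fold change relative to the detergent-processed vehicle, calculated per replicate from vsn-normalised intensities. Jurkat crude lysate received eight concentrations (0.1 to 10 mM) for 10 min at room temperature and 3 min at 37 °C, then was solubilised in 0.8% NP40 with benzonase (60 min, 4 °C). The ultracentrifuged supernatant was TMT-labelled and run by LC-MS/MS in three independent experiments.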
Target,NP40-soluble protein abundance (concentration: 1mM),NP40-soluble protein abundance (concentration: 2mM),NP40-soluble protein abundance (concentration: 4mM),NP40-soluble protein abundance (concentration: 6mM),NP40-soluble protein abundance (concentration: 8mM),NP40-soluble protein abundance (concentration: 10mM)
LYRM7 (UniProt Q5U5X0),0.963 ± 0.026,1 ± 0.037,0.939 ± 0.052,0.894 ± 0.035,0.871 ± 0.027,0.862 ± 0.06
GNPTAB (UniProt Q3T906),1.04 ± 0.025,1.04 ± 0.016,1.02 ± 0.014,1.01 ± 0.036,1.01 ± 0.04,1.04 ± 0.032
ETFDH (UniProt Q16134),1.01 ± 0.015,0.967 ± 0.043,1 ± 0.028,0.978 ± 0.039,0.989 ± 0.026,0.969 ± 0.05
UniProt Q5TC82 and related entries,0.995 ± 0.03,1.01 ± 0.033,0.999 ± 0.039,1 ± 0.036,1.02 ± 0.024,0.971 ± 0.032
MAN2A1 (UniProt Q16706),0.985 ± 0.012,0.938 ± 0.042,0.9353 ± 0.0082,0.96 ± 0.029,0.966 ± 0.017,0.948 ± 0.052
UniProt Q3YEC7,1 ± 0.031,1.05 ± 0.046,1.04 ± 0.014,1.03 ± 0.017,1.01 ± 0.039,1.02 ± 0.043
UniProt Q5SRE5 and related entries,0.996 ± 0.044,1.02 ± 0.026,1.05 ± 0.046,1.03 ± 0.056,1.11 ± 0.042,1.22 ± 0.087
UniProt Q32P28 and related entries,1 ± 0.03,1.02 ± 0.035,1.02 ± 0.012,1.028 ± 0.0022,1.04 ± 0.028,1.08 ± 0.041
TBCC (UniProt Q15814),0.984 ± 0.027,0.975 ± 0.022,1.03 ± 0.02,0.994 ± 0.022,1.01 ± 0.043,1.01 ± 0.045
Q495G5 and related entries (UniProt Q8IVH4),0.978 ± 0.028,0.96 ± 0.03,0.994 ± 0.032,1.05 ± 0.089,1.04 ± 0.073,1.05 ± 0.074
SAMD9 (UniProt Q5K651),1.01 ± 0.032,0.969 ± 0.061,0.99 ± 0.031,0.951 ± 0.028,0.962 ± 0.012,0.932 ± 0.03
HERC1 (UniProt Q15751),0.931 ± 0.057,0.917 ± 0.076,0.941 ± 0.017,0.901 ± 0.014,0.893 ± 0.029,0.913 ± 0.034
DNTTIP2 (UniProt Q5QJE6),1.1 ± 0.036,1.2 ± 0.022,1.27 ± 0.06,1.34 ± 0.083,1.4 ± 0.12,1.53 ± 0.16
Q5THR1 and related entries (UniProt Q9H5Z1),1.02 ± 0.061,0.96808 ± 0.00094,1.01 ± 0.011,0.987 ± 0.024,0.991 ± 0.022,0.997 ± 0.023
UniProt Q5JS54 and related entries,1.0077 ± 0.00064,1 ± 0.014,0.999 ± 0.022,0.99 ± 0.014,1.01 ± 0.027,0.98628 ± 0.00064
E2F4 (UniProt Q16254),1 ± 0.012,1.046 ± 0.0071,1.01 ± 0.014,0.99 ± 0.02,0.987 ± 0.041,0.9797 ± 0.0063
MAPKAPK3 (UniProt Q16644),1.01 ± 0.015,1.02 ± 0.07,0.972 ± 0.037,1.03 ± 0.033,0.992 ± 0.034,1.03 ± 0.022
UniProt Q5JTD0 and related entries,1.018 ± 0.0073,1.03 ± 0.039,1.02 ± 0.027,1.01 ± 0.024,0.998 ± 0.014,1.02 ± 0.054
UniProt Q5T2E6 and related entries,0.973 ± 0.043,0.947 ± 0.037,0.945 ± 0.057,0.992 ± 0.033,1.01 ± 0.037,0.981 ± 0.045
TST (UniProt Q16762),1.04 ± 0.04,0.997 ± 0.027,1.04 ± 0.048,1.03 ± 0.044,1.03 ± 0.088,1.01 ± 0.064

# Some values from the entries so far:
# Value for SAMD9 (UniProt Q5K651) under NP40-soluble protein abundance (concentration: 8mM): 0.962 ± 0.012
# Value for E2F4 (UniProt Q16254) under NP40-soluble protein abundance (concentration: 2mM): 1.046 ± 0.0071

# Full records from above:
# UniProt Q5TC82 and related entries is entered as NP40-soluble protein abundance (concentration: 1mM): 0.995 ± 0.03; NP40-soluble protein abundance (concentration: 2mM): 1.01 ± 0.033; NP40-soluble protein abundance (concentration: 4mM): 0.999 ± 0.039; NP40-soluble protein abundance (concentration: 6mM): 1 ± 0.036; NP40-soluble protein abundance (concentration: 8mM): 1.02 ± 0.024; NP40-soluble protein abundance (concentration: 10mM): 0.971 ± 0.032
# UniProt Q5JTD0 and related entries is entered as NP40-soluble protein abundance (concentration: 1mM): 1.018 ± 0.0073; NP40-soluble protein abundance (concentration: 2mM): 1.03 ± 0.039; NP40-soluble protein abundance (concentration: 4mM): 1.02 ± 0.027; NP40-soluble protein abundance (concentration: 6mM): 1.01 ± 0.024; NP40-soluble protein abundance (concentration: 8mM): 0.998 ± 0.014; NP40-soluble protein abundance (concentration: 10mM): 1.02 ± 0.054

# (listing goes on)

Target,NP40-soluble protein abundance (concentration: 1mM),NP40-soluble protein abundance (concentration: 2mM),NP40-soluble protein abundance (concentration: 4mM),NP40-soluble protein abundance (concentration: 6mM),NP40-soluble protein abundance (concentration: 8mM),NP40-soluble protein abundance (concentration: 10mM)
TWISTNB (UniProt Q3B726),0.975 ± 0.02,0.999 ± 0.022,1 ± 0.022,1.02 ± 0.055,1.06 ± 0.034,1.05 ± 0.072
TAF9 (UniProt Q16594),1.009 ± 0.0054,1.04 ± 0.02,1.01 ± 0.018,1.01 ± 0.018,1.03 ± 0.016,1.05 ± 0.039
ZNHIT3 (UniProt Q15649),1 ± 0.037,1.027 ± 0.0095,0.9981 ± 0.0094,1.02 ± 0.018,1.03 ± 0.011,1.07 ± 0.011
QPRT (UniProt Q15274),0.96 ± 0.021,0.982 ± 0.029,0.978 ± 0.028,1 ± 0.035,1 ± 0.03,1.01 ± 0.05
CRTC2 (UniProt Q53ET0),1 ± 0.015,1.04 ± 0.047,0.995 ± 0.025,0.959 ± 0.022,0.992 ± 0.025,0.978 ± 0.021
AGK (UniProt Q53H12),1 ± 0.027,0.951 ± 0.017,1 ± 0.024,0.95 ± 0.022,0.95 ± 0.07,0.904 ± 0.057
UniProt Q5T5Y3 and related entries,1.04 ± 0.036,1.06 ± 0.052,1.05 ± 0.03,0.996 ± 0.033,1 ± 0.029,1 ± 0.023
HSP90AA4P (UniProt Q58FG1),0.862 ± 0.051,0.93 ± 0.039,0.878 ± 0.052,0.973 ± 0.074,0.927 ± 0.054,0.931 ± 0.064
UniProt Q2TAY7,0.996 ± 0.05,0.927 ± 0.093,1.03 ± 0.024,1.09 ± 0.043,1.17 ± 0.045,1.14 ± 0.036
MIA3 (UniProt Q5JRA6),1.03 ± 0.024,1.1 ± 0.054,1.02 ± 0.018,1.01 ± 0.018,0.998 ± 0.0068,0.998 ± 0.029
RABEP1 (UniProt Q15276),1.03 ± 0.013,1.06 ± 0.044,1.03 ± 0.016,0.997 ± 0.019,0.969 ± 0.013,0.991 ± 0.025
UniProt Q5T8P6 and related entries,1.05 ± 0.042,1.11 ± 0.067,1.1 ± 0.055,1.14 ± 0.061,1.16 ± 0.077,1.21 ± 0.08
UniProt Q4G0N4,0.9766 ± 0.0049,0.966 ± 0.016,1.01 ± 0.046,1.02 ± 0.021,1.04 ± 0.0053,1.02 ± 0.019
Q5JVZ5 and related entries (UniProt Q96JJ3),0.959 ± 0.03,0.931 ± 0.05,0.943 ± 0.043,0.925 ± 0.081,0.91 ± 0.054,0.909 ± 0.07
UniProt Q5GLZ8 and related entries,0.992 ± 0.046,0.95 ± 0.042,0.984 ± 0.04,0.965 ± 0.025,0.97 ± 0.012,0.957 ± 0.017
TSR1 (UniProt Q2NL82),0.845 ± 0.036,0.855 ± 0.055,0.854 ± 0.076,0.885 ± 0.065,0.864 ± 0.059,0.9 ± 0.088
Q5TBM3 and related entries (UniProt Q92598),1.011 ± 0.0094,1.04 ± 0.034,1 ± 0.025,1.03 ± 0.017,0.985 ± 0.028,1.02 ± 0.041
LLGL1 (UniProt Q15334),0.976 ± 0.013,0.9958 ± 0.0077,0.975 ± 0.015,0.906 ± 0.028,0.908 ± 0.019,0.915 ± 0.019
VAMP3 (UniProt Q15836),0.99 ± 0.023,1.01 ± 0.026,1 ± 0.034,1.016 ± 0.0025,1.01 ± 0.018,0.987 ± 0.024
Q15392 and related entries (UniProt Q3LIE7+Q15392),0.954 ± 0.039,0.837 ± 0.13,0.961 ± 0.1,1.03 ± 0.037,1.08 ± 0.078,0.984 ± 0.086

Target,NP40-soluble protein abundance (concentration: 1mM),NP40-soluble protein abundance (concentration: 2mM),NP40-soluble protein abundance (concentration: 4mM),NP40-soluble protein abundance (concentration: 6mM),NP40-soluble protein abundance (concentration: 8mM),NP40-soluble protein abundance (concentration: 10mM)
HS1BP3 (UniProt Q53T59),1.008 ± 0.0059,1.04 ± 0.049,1.04 ± 0.034,1 ± 0.013,1.04 ± 0.018,1.02 ± 0.011
BOLA3 (UniProt Q53S33),0.948 ± 0.016,0.967 ± 0.021,0.935 ± 0.026,0.9272 ± 0.0036,0.894 ± 0.056,0.88 ± 0.046
LACTB2 (UniProt Q53H82),1.01 ± 0.024,0.977 ± 0.054,0.966 ± 0.026,0.968 ± 0.048,0.958 ± 0.056,0.95 ± 0.053
KLHL22 (UniProt Q53GT1),0.99 ± 0.018,0.988 ± 0.031,1.004 ± 0.01,1.002 ± 0.0011,0.991 ± 0.017,0.985 ± 0.011
COX19 (UniProt Q49B96),1.04 ± 0.017,1.06 ± 0.066,0.982 ± 0.075,0.96 ± 0.018,1 ± 0.02,0.9233 ± 0.0052
CEP55 (UniProt Q53EZ4),0.992 ± 0.031,1.03 ± 0.042,0.992 ± 0.031,0.968 ± 0.018,0.926 ± 0.038,0.935 ± 0.043
MED1 (UniProt Q15648),1.05 ± 0.028,1.06 ± 0.046,1.07 ± 0.048,1.07 ± 0.038,1.06 ± 0.026,1.1 ± 0.061
UniProt Q5FWF5,1.01 ± 0.012,1.012 ± 0.0086,1 ± 0.026,1.04 ± 0.035,1.029 ± 7.1e-05,1.06 ± 0.023
UniProt Q5EBL8 and related entries,1 ± 0.011,1.02 ± 0.023,0.9905 ± 0.0052,1 ± 0.025,1.02 ± 0.03,1.017 ± 0.0054
UniProt Q16537 and related entries,1 ± 0.012,0.937 ± 0.024,0.963 ± 0.019,0.946 ± 0.015,0.956 ± 0.036,0.9033 ± 0.0089
BEND3 (UniProt Q5T5X7),0.967 ± 0.025,0.971 ± 0.028,0.977 ± 0.046,0.941 ± 0.037,0.94 ± 0.046,0.927 ± 0.059
PMVK (UniProt Q15126),0.948 ± 0.0098,0.931 ± 0.018,0.973 ± 0.045,1.04 ± 0.07,1.04 ± 0.061,1.02 ± 0.052
TRIP4 (UniProt Q15650),0.991 ± 0.015,1.02 ± 0.052,1.04 ± 0.043,1.05 ± 0.033,1.03 ± 0.07,1.03 ± 0.1
Q5TCJ5 and related entries (UniProt Q9H3S1),0.952 ± 0.018,0.949 ± 0.018,0.985 ± 0.016,0.969 ± 0.043,1.01 ± 0.019,1 ± 0.04
UniProt Q15208,1.04 ± 0.035,0.965 ± 0.053,1.01 ± 0.039,0.989 ± 0.033,1.01 ± 0.053,0.961 ± 0.015
UniProt Q2T9J0 and related entries,1.01 ± 0.016,0.995 ± 0.034,0.992 ± 0.025,0.993 ± 0.022,0.995 ± 0.0098,1 ± 0.039
SURF2 (UniProt Q15527),1.02 ± 0.057,1.06 ± 0.086,0.997 ± 0.058,1.04 ± 0.11,1.08 ± 0.066,1.09 ± 0.053
UniProt Q5TG30,1.058 ± 0.0072,0.99 ± 0.023,1.011 ± 0.0037,0.998 ± 0.015,1.06 ± 0.025,1.01 ± 0.044
SEC23B (UniProt Q15437),1.01 ± 0.023,0.95 ± 0.056,1.03 ± 0.011,0.999 ± 0.047,1.05 ± 0.025,0.9923 ± 0.0094
UniProt Q5JTJ3 and related entries,1.02 ± 0.015,1.04 ± 0.081,0.991 ± 0.038,0.97 ± 0.043,0.943 ± 0.016,0.966 ± 0.046
